In the supplement of paper PMC10849652:
The list shows a part of the results.

Chains of the proteins cited; added tags and fusions are not shown. Lines headed by an entry give the natural chain unless they say otherwise; changes in a name come on top.
UniProt P60673: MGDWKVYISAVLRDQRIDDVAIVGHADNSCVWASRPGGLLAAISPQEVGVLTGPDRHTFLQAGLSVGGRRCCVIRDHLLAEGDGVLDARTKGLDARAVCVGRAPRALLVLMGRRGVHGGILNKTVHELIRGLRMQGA
UniProt Q9Y446: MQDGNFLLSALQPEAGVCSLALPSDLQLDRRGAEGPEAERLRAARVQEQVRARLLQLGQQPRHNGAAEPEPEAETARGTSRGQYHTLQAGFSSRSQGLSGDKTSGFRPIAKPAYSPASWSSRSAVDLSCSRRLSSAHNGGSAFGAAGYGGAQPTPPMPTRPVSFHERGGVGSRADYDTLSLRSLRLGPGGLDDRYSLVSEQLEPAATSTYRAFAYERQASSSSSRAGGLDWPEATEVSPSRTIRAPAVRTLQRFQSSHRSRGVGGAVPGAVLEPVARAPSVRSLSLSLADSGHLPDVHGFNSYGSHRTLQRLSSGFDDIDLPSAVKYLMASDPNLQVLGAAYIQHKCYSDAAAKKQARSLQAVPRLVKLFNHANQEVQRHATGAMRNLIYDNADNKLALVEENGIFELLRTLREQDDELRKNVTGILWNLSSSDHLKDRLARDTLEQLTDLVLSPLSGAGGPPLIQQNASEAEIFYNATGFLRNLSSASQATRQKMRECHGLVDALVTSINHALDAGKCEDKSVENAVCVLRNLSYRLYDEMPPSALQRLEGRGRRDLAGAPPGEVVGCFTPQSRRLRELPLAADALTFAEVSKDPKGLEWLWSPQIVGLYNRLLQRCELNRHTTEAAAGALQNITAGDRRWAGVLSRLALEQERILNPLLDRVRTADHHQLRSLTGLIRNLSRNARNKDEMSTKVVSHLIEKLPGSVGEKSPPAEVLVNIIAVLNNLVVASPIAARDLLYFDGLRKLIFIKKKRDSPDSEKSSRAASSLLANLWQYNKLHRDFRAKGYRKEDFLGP
UniProt P0C869: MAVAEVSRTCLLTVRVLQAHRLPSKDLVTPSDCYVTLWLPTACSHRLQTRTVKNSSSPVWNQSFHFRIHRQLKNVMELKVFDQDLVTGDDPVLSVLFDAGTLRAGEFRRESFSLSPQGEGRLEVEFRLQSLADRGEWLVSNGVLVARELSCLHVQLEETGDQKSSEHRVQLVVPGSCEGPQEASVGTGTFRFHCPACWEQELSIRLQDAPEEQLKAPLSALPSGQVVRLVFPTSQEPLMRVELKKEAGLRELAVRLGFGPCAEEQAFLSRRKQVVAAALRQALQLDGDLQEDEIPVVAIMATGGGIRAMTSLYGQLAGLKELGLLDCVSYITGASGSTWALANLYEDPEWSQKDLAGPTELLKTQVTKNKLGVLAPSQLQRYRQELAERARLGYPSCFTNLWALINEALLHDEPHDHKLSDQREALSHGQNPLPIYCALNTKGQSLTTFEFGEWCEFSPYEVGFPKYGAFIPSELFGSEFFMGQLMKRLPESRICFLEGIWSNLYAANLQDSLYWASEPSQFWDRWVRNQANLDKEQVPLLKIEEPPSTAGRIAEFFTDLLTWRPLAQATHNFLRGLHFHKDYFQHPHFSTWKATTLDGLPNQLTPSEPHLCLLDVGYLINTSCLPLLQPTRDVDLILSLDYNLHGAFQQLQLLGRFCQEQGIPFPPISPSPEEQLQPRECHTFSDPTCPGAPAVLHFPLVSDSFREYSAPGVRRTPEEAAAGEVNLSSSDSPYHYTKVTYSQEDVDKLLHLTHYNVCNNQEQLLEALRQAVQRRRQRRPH
UniProt P14618, whole entry, looked up: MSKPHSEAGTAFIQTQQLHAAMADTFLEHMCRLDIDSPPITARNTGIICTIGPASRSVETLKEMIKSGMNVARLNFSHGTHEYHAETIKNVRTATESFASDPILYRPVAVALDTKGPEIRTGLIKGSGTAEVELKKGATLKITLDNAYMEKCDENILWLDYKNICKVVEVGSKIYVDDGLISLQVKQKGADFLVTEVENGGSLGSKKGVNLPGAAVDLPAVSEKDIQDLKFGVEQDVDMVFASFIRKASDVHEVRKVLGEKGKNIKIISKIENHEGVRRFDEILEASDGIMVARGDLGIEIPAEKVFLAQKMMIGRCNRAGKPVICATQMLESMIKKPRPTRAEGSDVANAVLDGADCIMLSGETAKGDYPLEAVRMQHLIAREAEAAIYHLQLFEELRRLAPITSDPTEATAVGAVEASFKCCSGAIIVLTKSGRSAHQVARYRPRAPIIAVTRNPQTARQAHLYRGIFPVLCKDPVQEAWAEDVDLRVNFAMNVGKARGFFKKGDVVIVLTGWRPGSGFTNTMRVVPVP
UniProt Q99755: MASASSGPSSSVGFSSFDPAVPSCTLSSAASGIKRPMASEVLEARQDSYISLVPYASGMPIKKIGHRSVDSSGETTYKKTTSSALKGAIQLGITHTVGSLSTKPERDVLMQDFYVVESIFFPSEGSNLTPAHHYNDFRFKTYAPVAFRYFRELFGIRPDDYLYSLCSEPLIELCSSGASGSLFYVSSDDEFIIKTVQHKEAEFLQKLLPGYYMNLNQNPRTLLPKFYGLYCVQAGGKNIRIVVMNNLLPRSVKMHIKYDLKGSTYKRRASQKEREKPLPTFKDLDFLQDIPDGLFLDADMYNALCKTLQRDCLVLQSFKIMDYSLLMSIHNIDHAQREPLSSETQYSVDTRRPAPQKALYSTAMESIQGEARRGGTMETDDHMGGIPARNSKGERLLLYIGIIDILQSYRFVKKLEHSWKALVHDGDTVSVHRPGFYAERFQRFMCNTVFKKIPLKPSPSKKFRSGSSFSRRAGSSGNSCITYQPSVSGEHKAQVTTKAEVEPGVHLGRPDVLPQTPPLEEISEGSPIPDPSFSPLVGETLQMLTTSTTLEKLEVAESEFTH
UniProt Q8N4B1: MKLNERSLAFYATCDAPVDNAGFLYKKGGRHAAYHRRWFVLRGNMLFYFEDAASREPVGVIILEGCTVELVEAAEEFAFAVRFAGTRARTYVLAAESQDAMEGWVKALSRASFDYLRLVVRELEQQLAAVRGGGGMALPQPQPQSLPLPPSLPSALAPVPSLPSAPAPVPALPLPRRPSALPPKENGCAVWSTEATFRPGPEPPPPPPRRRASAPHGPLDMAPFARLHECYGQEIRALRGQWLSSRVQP
UniProt O95427: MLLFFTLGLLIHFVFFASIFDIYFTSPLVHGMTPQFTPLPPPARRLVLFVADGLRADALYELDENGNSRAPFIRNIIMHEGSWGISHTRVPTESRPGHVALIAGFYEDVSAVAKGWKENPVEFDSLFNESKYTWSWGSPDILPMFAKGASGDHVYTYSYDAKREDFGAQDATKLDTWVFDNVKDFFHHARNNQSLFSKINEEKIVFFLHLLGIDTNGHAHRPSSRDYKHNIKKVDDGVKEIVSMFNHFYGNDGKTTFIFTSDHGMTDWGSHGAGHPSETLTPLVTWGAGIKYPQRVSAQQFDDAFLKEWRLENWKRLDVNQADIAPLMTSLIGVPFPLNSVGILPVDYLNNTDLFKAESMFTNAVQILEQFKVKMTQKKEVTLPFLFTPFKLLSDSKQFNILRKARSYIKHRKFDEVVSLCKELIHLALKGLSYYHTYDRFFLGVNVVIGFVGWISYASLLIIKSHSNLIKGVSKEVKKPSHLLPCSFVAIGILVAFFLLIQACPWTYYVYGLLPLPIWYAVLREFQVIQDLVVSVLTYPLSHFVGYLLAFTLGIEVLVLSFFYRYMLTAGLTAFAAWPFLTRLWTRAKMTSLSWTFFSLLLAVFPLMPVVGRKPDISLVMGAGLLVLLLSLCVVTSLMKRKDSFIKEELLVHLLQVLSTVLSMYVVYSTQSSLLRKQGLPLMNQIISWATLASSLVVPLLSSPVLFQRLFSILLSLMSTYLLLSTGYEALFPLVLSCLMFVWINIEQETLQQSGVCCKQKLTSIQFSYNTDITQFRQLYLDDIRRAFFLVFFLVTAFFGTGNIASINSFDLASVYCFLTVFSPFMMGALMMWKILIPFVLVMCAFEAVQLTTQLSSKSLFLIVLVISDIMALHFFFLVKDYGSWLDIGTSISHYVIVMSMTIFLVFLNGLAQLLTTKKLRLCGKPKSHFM
UniProt P07205: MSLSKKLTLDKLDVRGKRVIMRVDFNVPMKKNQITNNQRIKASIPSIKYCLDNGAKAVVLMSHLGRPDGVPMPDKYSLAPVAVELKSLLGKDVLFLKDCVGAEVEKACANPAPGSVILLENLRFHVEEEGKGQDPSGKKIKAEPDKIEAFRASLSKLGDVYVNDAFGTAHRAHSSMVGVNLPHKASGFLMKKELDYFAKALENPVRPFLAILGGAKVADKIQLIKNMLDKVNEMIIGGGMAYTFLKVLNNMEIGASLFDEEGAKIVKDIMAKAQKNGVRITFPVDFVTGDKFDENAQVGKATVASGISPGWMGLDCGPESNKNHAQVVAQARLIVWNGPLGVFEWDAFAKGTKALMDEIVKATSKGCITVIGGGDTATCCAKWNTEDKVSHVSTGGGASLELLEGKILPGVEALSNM
UniProt O60331: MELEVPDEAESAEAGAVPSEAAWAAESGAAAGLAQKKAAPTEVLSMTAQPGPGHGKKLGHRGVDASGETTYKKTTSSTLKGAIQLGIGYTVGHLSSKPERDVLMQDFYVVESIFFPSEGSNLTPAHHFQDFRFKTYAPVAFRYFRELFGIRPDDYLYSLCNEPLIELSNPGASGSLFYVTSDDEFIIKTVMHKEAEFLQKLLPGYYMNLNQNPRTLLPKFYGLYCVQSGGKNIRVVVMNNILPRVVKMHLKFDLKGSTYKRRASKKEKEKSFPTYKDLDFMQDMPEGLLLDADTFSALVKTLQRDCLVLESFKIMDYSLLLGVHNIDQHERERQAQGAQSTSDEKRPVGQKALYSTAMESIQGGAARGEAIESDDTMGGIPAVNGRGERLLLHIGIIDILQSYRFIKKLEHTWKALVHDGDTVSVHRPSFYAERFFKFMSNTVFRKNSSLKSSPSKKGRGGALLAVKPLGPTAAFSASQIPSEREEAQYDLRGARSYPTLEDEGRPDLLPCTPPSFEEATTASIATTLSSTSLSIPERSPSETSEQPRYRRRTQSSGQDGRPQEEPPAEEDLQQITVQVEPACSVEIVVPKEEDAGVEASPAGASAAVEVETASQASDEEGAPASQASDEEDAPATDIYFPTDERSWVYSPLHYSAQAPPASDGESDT
UniProt Q8TBF5: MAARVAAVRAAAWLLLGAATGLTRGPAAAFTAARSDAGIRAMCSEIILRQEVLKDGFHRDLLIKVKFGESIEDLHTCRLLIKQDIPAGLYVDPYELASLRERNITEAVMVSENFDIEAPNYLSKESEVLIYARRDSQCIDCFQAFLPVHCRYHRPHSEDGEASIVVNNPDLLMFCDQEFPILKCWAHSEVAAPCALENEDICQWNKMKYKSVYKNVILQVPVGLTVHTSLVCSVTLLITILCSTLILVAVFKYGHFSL
UniProt Q8NDX5: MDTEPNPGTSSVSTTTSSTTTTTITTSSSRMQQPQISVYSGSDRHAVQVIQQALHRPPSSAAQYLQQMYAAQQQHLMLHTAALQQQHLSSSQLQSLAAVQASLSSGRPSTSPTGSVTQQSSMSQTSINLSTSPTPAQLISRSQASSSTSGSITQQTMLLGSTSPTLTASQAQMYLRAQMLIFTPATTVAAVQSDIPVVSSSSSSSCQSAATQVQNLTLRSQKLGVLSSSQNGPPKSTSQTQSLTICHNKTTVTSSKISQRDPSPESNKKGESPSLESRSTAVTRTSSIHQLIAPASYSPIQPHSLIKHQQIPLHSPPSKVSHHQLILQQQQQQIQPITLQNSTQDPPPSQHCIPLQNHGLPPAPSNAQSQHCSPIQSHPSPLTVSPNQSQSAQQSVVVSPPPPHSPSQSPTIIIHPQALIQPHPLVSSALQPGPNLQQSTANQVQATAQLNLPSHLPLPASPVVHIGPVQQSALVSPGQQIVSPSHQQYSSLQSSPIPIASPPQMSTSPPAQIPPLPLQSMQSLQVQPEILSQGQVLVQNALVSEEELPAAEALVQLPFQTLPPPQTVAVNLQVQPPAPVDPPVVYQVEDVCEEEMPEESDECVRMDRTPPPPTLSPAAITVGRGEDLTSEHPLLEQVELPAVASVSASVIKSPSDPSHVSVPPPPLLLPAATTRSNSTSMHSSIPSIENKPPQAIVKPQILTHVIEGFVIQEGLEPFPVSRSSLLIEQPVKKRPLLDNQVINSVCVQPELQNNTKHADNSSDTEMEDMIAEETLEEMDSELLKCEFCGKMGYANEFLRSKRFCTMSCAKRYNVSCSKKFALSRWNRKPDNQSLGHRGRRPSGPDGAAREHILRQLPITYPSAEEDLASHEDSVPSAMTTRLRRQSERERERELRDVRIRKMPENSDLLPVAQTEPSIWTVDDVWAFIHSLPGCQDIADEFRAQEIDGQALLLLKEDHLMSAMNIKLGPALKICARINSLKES
UniProt Q9C010: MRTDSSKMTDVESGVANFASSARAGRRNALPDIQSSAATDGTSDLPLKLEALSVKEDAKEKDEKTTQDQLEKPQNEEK

compound: C/C(=N\NC(=O)C1=CC(=CC=C1)S(=O)(=O)N2CCOCC2)/C3=C(C=CC(=C3)Cl)O; test: log2 fold change, soluble protein after heating vs DMSO (PISA); higher = thermal stabilisation; K562 cells, 10 uM, 30 min; active = over 0.2 and 3.5 SD of the protein, either way, in both replicates (recomputed)
Summary of the method: (§1)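 K562 cells (2×10^6 cells/mL) were treated with 10 μM compound for 30 min, and aliquots were heated for 3 min over 48°C-58°C. Pooled aliquots were extracted in PBS with 0.5% NP-40 at 4°C, and the supernatant after 21,000xg for 90 min was measured by TMTpro 16plex LC-MS/MS with channel sums equalised. Reported thermal stability, relative to control samples and from duplicates, is a log2 fold change.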

log2 fold change, inactive:
PKHD1 (UniProt P08F94) -0.544
PFN3 (UniProt P60673) 0.141
PKP3 isoform 2 (UniProt Q9Y446) 0.001
PLA2G4B isoform 6 (UniProt P0C869) -0.231
PKM isoform 2 (UniProt P14618) -0.004
PIP5K1A (UniProt Q99755) 0.17
PHETA1 isoform 4 (UniProt Q8N4B1) 0.036
PKLR (UniProt F8W6W2) 0.024
PIGN (UniProt O95427) -0.004
PGK2 (UniProt P07205) -0.055
PLAUR (UniProt Q03405) -0.019

compound: C1=CC(=C(C=C1Cl)C2=NC3=NC=CN=C3C(=N2)NC4=CC=NC=C4)F; test: as above
Summary of the method: as §1

log2 fold change, inactive:
PLD6 (UniProt Q8N2A8) 0
PFN3 (UniProt P60673) -0.002
PKP3 isoform 2 (UniProt Q9Y446) -0.175
PHC2 isoform 5 (UniProt Q8IXK0) 0.045
PIP5K1C isoform 3 (UniProt O60331) -0.17
PHYKPL (UniProt Q8IUZ5) 0.12
PKP4 (UniProt Q99569) -0.094
PIGO (UniProt Q8TEQ8) -0.075
PKMYT1 (UniProt Q99640) -0.013
PHF19 isoform 2 (UniProt Q5T6S3) -0.027
PKM isoform 2 (UniProt P14618) 0.075
PIGX isoform 2 (UniProt Q8TBF5) -0.04
PIAS4 (UniProt Q8N2W9) 0.061
PIP5K1A (UniProt Q99755) -0.223
PIK3C2A (UniProt O00443) -0.099
PIGN (UniProt O95427) -0.037
PIGB (UniProt Q92521) -0.05
PGD (UniProt K7EM49) -0.334
PICK1 (UniProt Q9NRD5) 0.008
PHLPP1 (UniProt O60346) -0.092
PGK2 (UniProt P07205) -0.082
PHC3 isoform 7 (UniProt Q8NDX5) 0.24
PFKFB1 (UniProt P16118) 0.071

compound: C1=CC(=CC=C1C2=NC3=C(N2)C=C(C=C3)C(=O)N)OC4=CC=C(C=C4)Cl; test: as above
Summary of the method: as §1

log2 fold change, inactive:
PIBF1 (UniProt Q8WXW3) -0.124
PIP5K1C isoform 3 (UniProt O60331) -0.107
PHYKPL (UniProt Q8IUZ5) 0.003
PHRF1 (UniProt Q9P1Y6) 0.082
PKP4 (UniProt Q99569) 0.078
PIGO (UniProt Q8TEQ8) 0.027
PKMYT1 (UniProt Q99640) -0.108
PHF19 isoform 2 (UniProt Q5T6S3) -0.011
PIGX isoform 2 (UniProt Q8TBF5) 0.015
PGM1 isoform 2 (UniProt P36871) -0.111
PKIB isoform 2 (UniProt Q9C010) -0.067
PIK3C2A (UniProt O00443) -0.086
PIGM (UniProt Q9H3S5) -0.049
PLEK (UniProt P08567) -0.024
PIGB (UniProt Q92521) -0.013
PI4KB isoform 2 (UniProt Q9UBF8) 0.109
PHC3 isoform 7 (UniProt Q8NDX5) -0.002

compound: C1=CC2=C(C=CC(=C2)/C=C\3/C(=O)NC(=NCC4=CC=CS4)S3)N=C1; test: as above
Summary of the method: as §1

log2 fold change, inactive:
PKHD1 (UniProt P08F94) 0.339
PFN3 (UniProt P60673) 0.168
PKP3 isoform 2 (UniProt Q9Y446) 0.052
PLA2G4B isoform 6 (UniProt P0C869) 0.08
PKM isoform 2 (UniProt P14618) -0.005
PIP5K1A (UniProt Q99755) -0.013
PHETA1 isoform 4 (UniProt Q8N4B1) 0.035
PKLR (UniProt F8W6W2) 0.177
PIGN (UniProt O95427) -0.007
PGK2 (UniProt P07205) 0.152
PLAUR (UniProt Q03405) -0.159

compound: C1=CC2=NC=CN=C2C=C1/C=C/3\C(=O)NC(=O)S3; test: as above
Summary of the method: as §1

log2 fold change, inactive:
PIBF1 (UniProt Q8WXW3) 0.041
PLEKHB2 isoform 2 (UniProt Q96CS7) 0.277
PKP3 isoform 2 (UniProt Q9Y446) -0.052
PHC2 isoform 5 (UniProt Q8IXK0) 0.14
PIP5K1C isoform 3 (UniProt O60331) 0.092
PLA2G4B isoform 6 (UniProt P0C869) -0.032
PIGO (UniProt Q8TEQ8) 0.074
PHF19 isoform 2 (UniProt Q5T6S3) -0.259
PKM isoform 2 (UniProt P14618) -0.18
PIGX isoform 2 (UniProt Q8TBF5) 0.017
PIAS1 isoform 2 (UniProt O75925) 0.158
PIP5K1A (UniProt Q99755) -0.003
PIGM (UniProt Q9H3S5) 0.122
PFKM (UniProt F8VTQ3) -0.075
PKLR (UniProt F8W6W2) -0.031
PIGN (UniProt O95427) -0.039
PGD (UniProt K7EM49) -0.159
PLCXD1 (UniProt Q9NUJ7) 0.025
PGK2 (UniProt P07205) -0.018
PHC3 isoform 7 (UniProt Q8NDX5) 0.174
PFKFB1 (UniProt P16118) -0.072
